The text below walks through data of paper PMC9563422.

Sequences of proteins named here, by UniProt entry; tags and fusion partners are left off.
UniProt Q92993: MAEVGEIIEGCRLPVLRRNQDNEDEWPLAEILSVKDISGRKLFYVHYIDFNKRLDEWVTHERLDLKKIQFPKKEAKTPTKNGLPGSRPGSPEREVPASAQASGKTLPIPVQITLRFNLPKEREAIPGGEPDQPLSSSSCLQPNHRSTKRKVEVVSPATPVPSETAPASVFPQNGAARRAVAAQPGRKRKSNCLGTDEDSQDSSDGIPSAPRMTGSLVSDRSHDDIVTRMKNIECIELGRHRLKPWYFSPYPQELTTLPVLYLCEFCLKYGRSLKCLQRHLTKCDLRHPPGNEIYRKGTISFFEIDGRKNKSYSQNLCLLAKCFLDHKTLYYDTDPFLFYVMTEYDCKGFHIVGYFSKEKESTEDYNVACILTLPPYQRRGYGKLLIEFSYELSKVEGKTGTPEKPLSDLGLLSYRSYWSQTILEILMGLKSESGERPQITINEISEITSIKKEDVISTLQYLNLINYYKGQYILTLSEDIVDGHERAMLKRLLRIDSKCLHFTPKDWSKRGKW

These are yes or no findings as the source states them, for the method shown. In cells and extracts the contact can be indirect. Some entries that bind do so weakly or less than the wild type. For some assays here: Sequences can lack the tags named with a protein.

Experiment [1] deals with T1, PXR (endogenous, A549/TR cells) (human (endogenous in A549/TR)) (UniProt O75469).
T1 sequence: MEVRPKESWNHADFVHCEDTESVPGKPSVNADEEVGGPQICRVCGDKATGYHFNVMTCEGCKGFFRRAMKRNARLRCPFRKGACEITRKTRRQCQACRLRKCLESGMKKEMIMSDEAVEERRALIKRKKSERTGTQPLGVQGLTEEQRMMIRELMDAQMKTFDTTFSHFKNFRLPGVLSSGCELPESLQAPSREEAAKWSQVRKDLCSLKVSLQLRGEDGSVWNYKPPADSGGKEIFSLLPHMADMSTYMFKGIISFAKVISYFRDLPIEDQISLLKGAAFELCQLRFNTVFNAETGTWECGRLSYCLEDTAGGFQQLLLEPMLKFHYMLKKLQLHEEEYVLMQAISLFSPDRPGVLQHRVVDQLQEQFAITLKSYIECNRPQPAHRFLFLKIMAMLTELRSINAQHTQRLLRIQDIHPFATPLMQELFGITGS
Description: co-IP; cells treated with PTX and SPA70 together for 24 h, then arrested in specific cell cycle phases with thymidine (Tdr) and nocodazole; PXR antibody precipitates endogenous Tip60; Western blot.

Experiment [2] has as its target T2, GST-PXR ligand binding domain (107-434 aa) (UniProt O75469).
T2 sequence: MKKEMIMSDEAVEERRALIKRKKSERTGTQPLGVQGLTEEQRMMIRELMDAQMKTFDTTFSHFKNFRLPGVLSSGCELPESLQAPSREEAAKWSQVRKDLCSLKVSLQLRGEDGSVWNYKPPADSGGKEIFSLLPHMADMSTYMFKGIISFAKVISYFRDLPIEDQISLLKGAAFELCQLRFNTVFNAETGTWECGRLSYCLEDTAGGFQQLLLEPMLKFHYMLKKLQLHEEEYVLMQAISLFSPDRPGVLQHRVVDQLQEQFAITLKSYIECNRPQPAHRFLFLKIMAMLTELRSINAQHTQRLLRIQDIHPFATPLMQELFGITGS
Description: pull-down; GST-PXR fragments (1 ug) on beads, incubated with in vitro translated Tip60 in buffer with 100 mM NaCl at 4 °C overnight; washes with 150 mM NaCl; Western blot; only the target purified.

The target of experiment [3] is GST-Tip60 (UniProt Q92993). Description: pull-down; GST, GST-Tip60 (20 uL glutathione agarose) or GST-Tip60 truncated proteins (1 ug) on beads, incubated with 5 uL in vitro translated PXR in buffer with 100 mM NaCl at 4 °C overnight; washes with 150 mM NaCl; Western blot with PXR antibody; only the target purified.
Experiment [4] concerns the target FLAG-Tip60 (UniProt Q92993). Description: co-IP; H1299 cells co-transfected with FLAG-Tip60 (3 ug) and PXR (3 ug); 1 ug FLAG antibody; RIPA buffer with 100 mM NaCl at 4 °C overnight, protein A/G agarose, washes with 150 mM NaCl; Western blot.
In experiment [5] the target is GST-Tip60 (UniProt Q92993). As to the kind of experiment: pull-down; GST-Tip60 or GST incubated with lysates of A549/TR cells treated with 2 nM PTX, 10 uM SPA70 or both; endogenous PXR detected; only the target purified.

Turning to “Tip60 (endogenous, A549/TR cells) (from UniProt Q92993 1-513) (enzyme)”, the binding entry in experiment [1] was “binds”. “in vitro translated Tip60 (from UniProt Q92993 1-513) (enzyme)”: the binding entry in experiment [2] is “binds”.

B1: in vitro translated PXR (receptor, UniProt O75469 1-434)
chain: MEVRPKESWNHADFVHCEDTESVPGKPSVNADEEVGGPQICRVCGDKATGYHFNVMTCEGCKGFFRRAMKRNARLRCPFRKGACEITRKTRRQCQACRLRKCLESGMKKEMIMSDEAVEERRALIKRKKSERTGTQPLGVQGLTEEQRMMIRELMDAQMKTFDTTFSHFKNFRLPGVLSSGCELPESLQAPSREEAAKWSQVRKDLCSLKVSLQLRGEDGSVWNYKPPADSGGKEIFSLLPHMADMSTYMFKGIISFAKVISYFRDLPIEDQISLLKGAAFELCQLRFNTVFNAETGTWECGRLSYCLEDTAGGFQQLLLEPMLKFHYMLKKLQLHEEEYVLMQAISLFSPDRPGVLQHRVVDQLQEQFAITLKSYIECNRPQPAHRFLFLKIMAMLTELRSINAQHTQRLLRIQDIHPFATPLMQELFGITGS
For B1, the binding entry in experiment [3] was “binds”.

B2: PXR (transfected in H1299 cells) (receptor, UniProt O75469 1-434)
chain: MEVRPKESWNHADFVHCEDTESVPGKPSVNADEEVGGPQICRVCGDKATGYHFNVMTCEGCKGFFRRAMKRNARLRCPFRKGACEITRKTRRQCQACRLRKCLESGMKKEMIMSDEAVEERRALIKRKKSERTGTQPLGVQGLTEEQRMMIRELMDAQMKTFDTTFSHFKNFRLPGVLSSGCELPESLQAPSREEAAKWSQVRKDLCSLKVSLQLRGEDGSVWNYKPPADSGGKEIFSLLPHMADMSTYMFKGIISFAKVISYFRDLPIEDQISLLKGAAFELCQLRFNTVFNAETGTWECGRLSYCLEDTAGGFQQLLLEPMLKFHYMLKKLQLHEEEYVLMQAISLFSPDRPGVLQHRVVDQLQEQFAITLKSYIECNRPQPAHRFLFLKIMAMLTELRSINAQHTQRLLRIQDIHPFATPLMQELFGITGS
Consider B2, for which, in experiment [4], the binding entry was “binds”.

B3: PXR (endogenous, A549/TR cells) (receptor, UniProt O75469 1-434)
chain: MEVRPKESWNHADFVHCEDTESVPGKPSVNADEEVGGPQICRVCGDKATGYHFNVMTCEGCKGFFRRAMKRNARLRCPFRKGACEITRKTRRQCQACRLRKCLESGMKKEMIMSDEAVEERRALIKRKKSERTGTQPLGVQGLTEEQRMMIRELMDAQMKTFDTTFSHFKNFRLPGVLSSGCELPESLQAPSREEAAKWSQVRKDLCSLKVSLQLRGEDGSVWNYKPPADSGGKEIFSLLPHMADMSTYMFKGIISFAKVISYFRDLPIEDQISLLKGAAFELCQLRFNTVFNAETGTWECGRLSYCLEDTAGGFQQLLLEPMLKFHYMLKKLQLHEEEYVLMQAISLFSPDRPGVLQHRVVDQLQEQFAITLKSYIECNRPQPAHRFLFLKIMAMLTELRSINAQHTQRLLRIQDIHPFATPLMQELFGITGS
As for B3, the binding entry in experiment [5] is on record as “binds”.
